The source of these data is article PMC3748051.

These are yes or no findings as the source states them, for the method shown. Some entries that bind do so weakly or less than the wild type.

The assay deals with cervid recPrP 89-231 (cervid) (UniProt Q7JIQ1). The assay can be described thus: ThT fluorescence kinetics of de novo fibrillation; both purified.

Consider “cervid recPrP 89-231 (from UniProt Q7JIQ1 89-231) (domain or fragment)”, for which the binding entry was “binds”.
